From publication PMC7949125
Results are given in words; binding and its absence hold for the method and conditions named. Binding seen in cells or lysates may run through a third protein. Some results given as binding are weak or reduced against the parent protein; the word gives no strength.

By UniProt entry, the sequences of proteins in these tests, tags left out. Residues count along the entry.
UniProt P36544, residues 23-502: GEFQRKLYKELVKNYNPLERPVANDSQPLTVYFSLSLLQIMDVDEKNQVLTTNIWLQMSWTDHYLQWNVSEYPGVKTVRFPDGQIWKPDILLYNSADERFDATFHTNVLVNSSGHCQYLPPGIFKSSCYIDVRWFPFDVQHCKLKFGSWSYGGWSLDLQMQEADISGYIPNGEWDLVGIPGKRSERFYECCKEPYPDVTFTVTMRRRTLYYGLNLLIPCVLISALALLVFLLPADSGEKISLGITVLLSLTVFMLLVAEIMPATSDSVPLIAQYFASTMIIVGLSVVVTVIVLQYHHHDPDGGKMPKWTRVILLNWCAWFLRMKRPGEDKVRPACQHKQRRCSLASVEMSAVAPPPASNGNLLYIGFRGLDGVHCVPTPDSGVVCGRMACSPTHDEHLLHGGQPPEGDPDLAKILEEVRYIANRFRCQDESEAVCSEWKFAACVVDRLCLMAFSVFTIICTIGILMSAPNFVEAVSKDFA
UniProt Q494W8: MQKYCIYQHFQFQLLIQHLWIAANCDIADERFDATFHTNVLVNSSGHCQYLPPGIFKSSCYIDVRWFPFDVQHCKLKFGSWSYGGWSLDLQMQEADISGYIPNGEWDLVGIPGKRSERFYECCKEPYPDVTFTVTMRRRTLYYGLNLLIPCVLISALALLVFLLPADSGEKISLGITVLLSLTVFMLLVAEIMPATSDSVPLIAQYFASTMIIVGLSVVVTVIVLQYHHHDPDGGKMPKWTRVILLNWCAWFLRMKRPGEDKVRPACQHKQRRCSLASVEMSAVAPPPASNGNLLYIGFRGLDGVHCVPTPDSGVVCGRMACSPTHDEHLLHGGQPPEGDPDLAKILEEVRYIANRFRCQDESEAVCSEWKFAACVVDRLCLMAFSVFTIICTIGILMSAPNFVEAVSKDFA

What was measured:
[1] = molecular target: α7-GFP (α7 nicotinic acetylcholine receptor subunit tagged with GFP) (human) (UniProt P36544); assay: FRET or BRET; acceptor photobleaching (561 nm laser) on a confocal microscope; SH-SY5Y cells nucleofected with the two constructs at a 1:1 ratio, fixed 48 h after transfection; GFP donor, Cherry acceptor; FRET efficiency = 1 - (Dpre/Dpost)
[2] = molecular target: α7-Cherry (α7 nicotinic acetylcholine receptor subunit tagged with Cherry) (human) (UniProt P36544); assay: as above

| binding [1] | binding [2] | Substance |
| --- | --- | --- |
| binds |  | dupα7-Cherry (partial duplicated isoform of the human α7 nicotinic subunit tagged with Cherry) (from UniProt Q494W8 1-412) |
|  | binds | dupα7-GFP (partial duplicated isoform of the human α7 nicotinic subunit tagged with GFP) (from UniProt Q494W8 1-412) |
